The values that follow come from PMC12199398, “Manipulating the Light Systemic Signal HY5 Greatly Improve Fruit Quality in Tomato”.

Negatives hold for the conditions tested. At least one verdict rests on a figure or table, not on a statement of the authors. Tags and fusion partners may be left off the protein sequences shown.

Series [1] deals with T1, HY5 (His-HY5) (Solanum lycopersicum (tomato)) (UniProt Q9SM50).
T1 sequence (looked up): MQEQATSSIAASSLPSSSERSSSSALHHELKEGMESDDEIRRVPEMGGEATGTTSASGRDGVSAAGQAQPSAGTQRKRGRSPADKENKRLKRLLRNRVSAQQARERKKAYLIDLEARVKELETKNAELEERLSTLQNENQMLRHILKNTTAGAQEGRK
The series is described as follows: EMSA. Particulars: labeled mutant probe; LightShift Chemiluminescent EMSA Kit (Thermo 20148); pH and temperature not stated; recombinant protein; residues 1-158; protein details: His (pET-32a); label: labeled or unlabeled competitor. For orientation: A gel shift assay detects complexes by their altered migration in electrophoresis.

For series [2], the target named is T1, HY5 (His-HY5) (Solanum lycopersicum (tomato)). The series is described as follows: competition with a labelled probe. The settings on record: LightShift Chemiluminescent EMSA Kit (Thermo 20148), pH and temperature not stated, recombinant protein, residues 1-158, protein details: His (pET-32a), label: labeled or unlabeled competitor.

For “CGCAATTAAATTTTTTAGGGCTTTGA (double strand) [LIN6 mutant probe]”, the binding result in series [1] and in series [2] (unlabeled mutant vs labeled N13) was “no binding” throughout.

Turning to “CACCCTTTAGAAAAATTACAGTAG (double strand) [SS1 mutant probe]”, the binding result in series [1] and in series [2] (unlabeled mutant vs labeled N7) was “no binding” throughout.

With “TGGTGGGTTTTGTCAAATT (double strand) [PDS mutant probe]”, the binding result in series [1] and in series [2] (unlabeled mutant vs labeled N3) was “no binding” each time.

Turning to “GCCCGGTGTCTTTTTTAGATTGACAG (double strand) [SS7 mutant probe]”, the binding result in series [1] and in series [2] (unlabeled mutant vs labeled N9) was “no binding” each time.

Consider “GAAAATCTTTTTGTCTTAA (double strand) [PSY1 mutant probe]”, for which the binding result in series [1] and in series [2] (unlabeled mutant vs labeled N1) was “no binding” each time.

Consider “GTAAATTATTTTTTCAGGCTTTAT (double strand) [LIN5 mutant probe]”, for which the binding result in series [1] and in series [2] (unlabeled mutant vs labeled N11) was “no binding” in each case.

Take “AAGAAAAAAAATGAAAATTTTCCCCTTATT (double strand) [VI mutant probe]”: the binding result in series [1] and in series [2] (unlabeled mutant vs labeled N5) was “no binding” in each case.
